Data: article PMC11189575
These are yes or no findings as the source states them, for the method shown. Binding seen in cells or lysates may run through a third protein. Binding can be weak; no strength is given.

B1: MsrA (enzyme, UniProt P0A744 1-212)
chain: MSLFDKKHLVSPADALPGRNTPMPVATLHAVNGHSMTNVPDGMEIAIFAMGCFWGVERLFWQLPGVYSTAAGYTGGYTPNPTYREVCSGDTGHAEAVRIVYDPSVISYEQLLQVFWENHDPAQGMRQGNDHGTQYRSAIYPLTPEQDAAARASLERFQAAMLAADDDRHITTEIANATPFYYAEDDHQQYLHKNPYGYCGIGGIGVCLPPEA
B2: PAPR (enzyme, UniProt P17854 1-244)
chain: MSKLDLNALNELPKVDRILALAETNAELEKLDAEGRVAWALDNLPGEYVLSSSFGIQAAVSLHLVNQIRPDIPVILTDTGYLFPETYRFIDELTDKLKLNLKVYRATESAAWQEARYGKLWEQGVEGIEKYNDINKVEPMNRALKELNAQTWFAGLRREQSGSRANLPVLAIQRGVFKVLPIIDWDNRTIYQYLQKHGLKYHPLWDEGYLSVGDTHTTRKWEPGMAEEETRFFGLKRECGLHEG
B3: BCP (enzyme, UniProt P0AE52 1-156)
chain: MNPLKAGDIAPKFSLPDQDGEQVNLTDFQGQRVLVYFYPKAMTPGCTVQACGLRDNMDELKKAGVDVLGISTDKPEKLSRFAEKELLNFTLLSDEDHQVCEQFGVWGEKSFMGKTYDGIHRISFLIDADGKIEHVFDDFKTSNHHDVVLNWLKEHA
B4: Tpx (enzyme, UniProt P0A862 1-168)
chain: MSQTVHFQGNPVTVANSIPQAGSKAQTFTLVAKDLSDVTLGQFAGKRKVLNIFPSIDTGVCAASVRKFNQLATEIDNTVVLCISADLPFAQSRFCGAEGLNNVITLSTFRNAEFLQAYGVAIADGPLKGLAARAVVVIDENDNVIFSQLVDEITTEPDYEAALAVLKA

target: Trx1(C35A-Q62eFSY); test: cross-linking; eFSY at site 62 of Trx1 in live E. coli; His-tag purification, biotin labelling, enrichment of cross-linked peptides, LC-MS/MS, search with AixUaa

binding, binds:
B1, B2, B3, B4
